Assay results taken from article PMC4755545.
No constants are given. Whether binding was seen depends on the method and setting. Binding seen in cells or lysates may run through a third protein. Some entries that bind do so weakly or less than the wild type. Sequences can lack the tags named with a protein.

T1: TAP-tagged Lid1 (Apc4), subunit of the APC/C (S. pombe) (UniProt O42839)
T1 sequence: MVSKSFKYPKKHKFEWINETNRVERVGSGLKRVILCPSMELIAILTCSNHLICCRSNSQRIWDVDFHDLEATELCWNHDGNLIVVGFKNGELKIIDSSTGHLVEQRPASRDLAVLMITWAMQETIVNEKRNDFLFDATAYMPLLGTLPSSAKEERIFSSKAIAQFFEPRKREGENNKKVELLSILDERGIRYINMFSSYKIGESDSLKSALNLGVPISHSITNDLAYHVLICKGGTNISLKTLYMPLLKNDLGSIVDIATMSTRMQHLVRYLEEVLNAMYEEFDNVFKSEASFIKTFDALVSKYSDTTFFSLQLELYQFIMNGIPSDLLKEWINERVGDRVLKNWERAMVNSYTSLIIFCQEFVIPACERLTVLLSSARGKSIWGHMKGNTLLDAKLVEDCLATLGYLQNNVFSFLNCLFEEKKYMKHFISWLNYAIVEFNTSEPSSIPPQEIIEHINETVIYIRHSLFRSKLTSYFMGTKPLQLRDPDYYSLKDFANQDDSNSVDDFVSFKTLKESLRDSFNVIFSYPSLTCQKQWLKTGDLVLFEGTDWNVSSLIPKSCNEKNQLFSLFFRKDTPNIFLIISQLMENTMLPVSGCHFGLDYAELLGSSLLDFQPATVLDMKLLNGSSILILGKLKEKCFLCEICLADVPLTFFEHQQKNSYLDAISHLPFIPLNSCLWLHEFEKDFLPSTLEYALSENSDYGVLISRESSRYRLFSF

T2: Cdc20^Slp1 with an internally-engineered 3xFLAG tag (S. pombe) (UniProt P78972)
T2 sequence: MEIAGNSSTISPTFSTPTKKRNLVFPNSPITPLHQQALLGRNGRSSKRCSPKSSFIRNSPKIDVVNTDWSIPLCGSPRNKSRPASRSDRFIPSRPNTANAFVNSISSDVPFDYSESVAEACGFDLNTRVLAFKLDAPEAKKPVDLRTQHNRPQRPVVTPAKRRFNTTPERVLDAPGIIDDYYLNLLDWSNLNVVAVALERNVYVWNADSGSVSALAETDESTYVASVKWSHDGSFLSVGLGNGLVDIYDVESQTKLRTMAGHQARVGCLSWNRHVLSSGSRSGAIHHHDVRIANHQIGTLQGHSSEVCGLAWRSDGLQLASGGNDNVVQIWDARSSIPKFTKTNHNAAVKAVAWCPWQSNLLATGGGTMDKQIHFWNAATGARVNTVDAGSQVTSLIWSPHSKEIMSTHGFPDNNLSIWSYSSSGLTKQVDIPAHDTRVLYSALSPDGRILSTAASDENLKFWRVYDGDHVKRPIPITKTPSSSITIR


How the values were obtained:
[1] = molecular target: T1, TAP-tagged Lid1 (Apc4), subunit of the APC/C (S. pombe); assay: co-IP; as a2, in the mad3-KEN1 strain: Apc4-TAP pulled down with IgG Dynabeads, blot for Mad2p
[2] = molecular target: T2, Cdc20^Slp1 with an internally-engineered 3xFLAG tag (S. pombe); assay: co-IP; Cdc20^Slp1-3xFLAG immunoprecipitated with anti-FLAG (M2) antibodies on Dynabeads from native extracts of cdc25-22 cells released from G2 into mitosis at 25°C, time points every 15 min; blots for Mad3p (anti-GFP) and Mad2p; strains wild type, mad3-C9A, mad2-S92A, mad3-C9A mad2-S92A, mps1-kd
[3] = molecular target: T1, TAP-tagged Lid1 (Apc4), subunit of the APC/C (S. pombe); assay: co-IP; Apc4-TAP pulled down with IgG Dynabeads from extracts of cdc25-22 cells released from G2 into mitosis at 25°C, carbendazim added after 20 min, time points every 15 min; blots for Mad3p (anti-GFP) and Mad2p; lysis buffer 50 mM HEPES pH 7.5, 75 mM KCl, 0.1% TritonX-100; strains wild type, mad3-KEN1, mad3-KEN2, mad3-C9A, mad2-S92A, mad3-C9A mad2-S92A

Row | binding [2] | binding [3] | Binder | binding [1]
1 | binds | binds | Mad2p (wild type) (protein, UniProt O14417 1-203) MSSVPIRTNFSLKGSSKLVSEFFEYAVNSILFQRGIYPAEDFKVVRKYGLNMLVSVDEEVKTYIRKIVSQLHKWMFAKKIQKLILVITSKCSGEDLERWQFNVEMVDTADQFQNIGNKEDELRVQKEIQALIRQITATVTFLPQLEEQCTFNVLVYADKDSEVPTDWVDSDPRILRDAEQVQLRSFSTSMHKIDCQVAYRVNP | no binding (condition: in the mad3-KEN1 strain)
2 | binds | binds | Mad2-S92A (protein, UniProt O14417 1-203) MSSVPIRTNFSLKGSSKLVSEFFEYAVNSILFQRGIYPAEDFKVVRKYGLNMLVSVDEEVKTYIRKIVSQLHKWMFAKKIQKLILVITSKCAGEDLERWQFNVEMVDTADQFQNIGNKEDELRVQKEIQALIRQITATVTFLPQLEEQCTFNVLVYADKDSEVPTDWVDSDPRILRDAEQVQLRSFSTSMHKIDCQVAYRVNP | –
3 | binds | binds | Mad3p tagged with GFP (wild type) (protein, UniProt O59767 1-310) MEPLDAGKNWVHMDVIEQSKENIEPRKAGHSASALAKSSSRNHTEKEVAGLQKERMGHERKIETSESLDDPLQVWIDYIKWTLDNFPQGETKTSGLVTLLERCTREFVRNPLYKDDVRYLRIWMQYVNYIDEPVELFSFLAHHHIGQESSIFYEEYANYFESRGLFQKADEVYQKGKRMKAKPFLRFQQKYQQFTHRWLEFAPQSFSSNTNSVNPLQTTFESTNIQEISQSRTKISKPKFKFSVYSDADGSGKDGQPGTWQTLGTVDQRRKENNISATSWVGEKLPLKSPRKLDPLGKFQVHCDEEVSKE | –
